Experimental data published in patent US20190185439A1, “RADIOFLUORINATED CARBOXIMIDAMIDES AS IDO TARGETING PET TRACER FOR CANCER IMAGING” (H. LEE MOFFITT CANCER CENTER & RESEARCH INSTITUTE, INC., priority 2016, published 2019).
Some of these results come from one statement about several compounds together. At least one compound was matched to its structure with a doubt left.

Assay: In vitro stability in mouse serum (radio-TLC)
Type: in vitro ADME
Settings: 37° C., 3 h

SMILES	radioactivity observed in the form of intact tracer
Nc1nonc1C(=NO)Nc1ccc([18F])c(Cl)c1 [[^18F]IDO5L, [^18F] 4-amino-N-(3-chloro-4-fluorophenyl)-N′-hydroxy-1,2,5-oxadiazole-3-carboximidamide, reference compound]	> 95%
ON=C(Nc1ccc(F)c(Cl)c1)c1nonc1NCC[18F] [[^18F]IDO49]	> 95%
